# From PubChem BioAssay AID602313 (National Center for Advancing Translational Sciences (NCATS), 2012)
# The campaign covered roughly 390,000 compounds. About 760 (0.19%) were called active. The shares of active, inactive and inconclusive entries below differ from those in the screen. Calls follow the shape of the dose curve; as a rule, active = well fitted inhibition curve with a large enough effect; inconclusive = small, poorly fitted or top-dose-only effect; inactive = flat fitted curve, though single readings scatter. A potency beside an inconclusive call is a rough fit, not a confirmed value.
# Assay: qHTS for Inhibitors of Vif-A3F Interactions: qHTS; also: nearly all actives have a fitted effect of over 65% in size
# Conditions: HeLa A3F-eYFP + Vif (tagged APOBEC3F with the HIV-1 protein that degrades it), YFP fluorescence increase; series mostly up to 46.1 µM
# Procedure, shortened: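 HeLa cells stably expressing A3F-eYFP plus Vif, plated and incubated overnight at 37 deg C, then exposed to compounds overnight at 37 deg C. Blocked degradation read as raised yellow fluorescence (Ex 488/Em 500-530).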
# Potency is read from the fitted curve at half-maximal effect.
row,SMILES,Potency
1,CN(Cc1ccccc1)C(=S)NC(=O)c1ccccc1,"inconclusive: 20 µM [inhibitor, single point]"
2,O=[N+]([O-])c1cc2no[n+]([O-])c2cc1N1CCCCC1,"inconclusive: 3.55 µM [inhibitor, partial curve, poor fit]"
3,CCNS(=O)(=O)c1ccc(C(=O)OCc2cc(=O)oc3cc(OC)ccc23)cc1,"inconclusive: 25.1 µM [inhibitor, partial curve, poor fit]"
4,c1coc(-c2ccnc(-n3cccc3)n2)c1,"inconclusive: 2.24 µM [inhibitor, partial curve, poor fit]"
5,COc1ccc(C2C(C(=O)c3ccccc3)N3c4ccccc4C=CC3C2[N+](=O)[O-])cc1 (centres undefined),"inconclusive: 17.8 µM [inhibitor, partial curve, poor fit]"
6,COc1ccc(OC2C(=O)N(c3cc(C)ccc3C)C2c2ccc(OC)c(OC)c2)cc1 (centres undefined),inactive
7,CSc1nn2cc(CCN3CCOCC3)c(-c3ccc(F)cc3)nc2c1C#N,"inconclusive: 6.31 µM [inhibitor, single point]"
8,O=C(NC1CCCC1)C(c1cccnc1)N(C(=O)c1csnn1)C1CC1 (centres undefined),"inconclusive: 2 µM [inhibitor, partial curve, poor fit]"
9,CC(=O)Nc1ccc(C=CC=Cc2cccc([N+](=O)[O-])c2)cc1,"inconclusive: 35.5 µM [inhibitor, single point]"
10,N#CSCC(=O)c1cccc2ccccc12,"inconclusive: 8.91 µM [inhibitor, partial curve, poor fit]"
11,COC(=O)c1ccc(COc2ccccc2/C=C(\C#N)C(=O)Nc2c(C)cccc2C)cc1,"inconclusive: 3.16 µM [inhibitor, single point]"
12,CCCC(=O)Nc1ccc(NC(=O)c2cc3ccccc3o2)c(OC)c1,"inconclusive: 6.31 µM [inhibitor, single point]"
13,Cn1cnnc1SCC(=O)c1cc2ccccc2o1,"inconclusive: 3.16 µM [inhibitor, single point]"
14,O=C(Nc1ccc(S(=O)(=O)Nc2nccs2)cc1)c1ccc(N2C(=O)c3ccccc3C2=O)cc1,"inconclusive: 31.6 µM [inhibitor, single point]"
15,O=C(NCc1ccco1)c1cccc2c1C(=O)c1ccc(N3CCC(Cc4ccccc4)CC3)cc1S2(=O)=O,active: 10 µM
16,N#CC1=C(N)SC(N)=C(C#N)C1c1cccc(Oc2ccccc2)c1,"inconclusive: 20 µM [inhibitor, partial curve, poor fit]"
17,CN1CCN(C(=S)NC(=O)c2ccc(C(C)(C)C)cc2)CC1,"inconclusive: 2.82 µM [inhibitor, partial curve, poor fit]"
18,COc1ccc(NC(=S)N/C(=N/S(=O)(=O)c2ccc(C)cc2)c2ccccc2)cc1,"inconclusive: 22.4 µM [inhibitor, single point]"
19,C=CCc1c(C)[nH]c2c(OC)cccc2c1=S,"inconclusive: 25.1 µM [inhibitor, single point]"
20,CCN(CC)c1cc(C)c2cc(NC(=O)/C=C/c3ccccc3Cl)ccc2n1,"inconclusive: 22.4 µM [inhibitor, single point]"
21,COc1ccc(NC(=O)c2ccc(Cl)nc2)cc1S(=O)(=O)N1CCOCC1,"inconclusive: 11.2 µM [inhibitor, partial curve, poor fit]"
22,CCC1CCCCN1S(=O)(=O)c1ccc(C(=O)Nc2nnc(C3=COCCO3)o2)cc1 (centres undefined),"inconclusive: 35.5 µM [inhibitor, single point]"

# Copied from the entries so far (three entries):
row,SMILES,Potency
10,N#CSCC(=O)c1cccc2ccccc12,"inconclusive: 8.91 µM [inhibitor, partial curve, poor fit]"
11,COC(=O)c1ccc(COc2ccccc2/C=C(\C#N)C(=O)Nc2c(C)cccc2C)cc1,"inconclusive: 3.16 µM [inhibitor, single point]"
12,CCCC(=O)Nc1ccc(NC(=O)c2cc3ccccc3o2)c(OC)c1,"inconclusive: 6.31 µM [inhibitor, single point]"

# Remaining list, next part:

row,SMILES,Potency
1,COc1cc2cc(/C=C/C(=O)c3ccco3)c(Cl)nc2cc1OC,"inconclusive: 15.8 µM [inhibitor, single point]"
2,COc1ccc(S(=O)(=O)c2c(O)c(C)cc(NS(=O)(=O)c3ccc(Cl)cc3)c2C(C)C)cc1,inactive
3,Cc1nn(-c2nc3ccccc3[nH]2)c(=O)c2ccccc12,"inconclusive: 35.5 µM [inhibitor, single point]"
4,CC(Sc1n[nH]c(-c2ccccc2F)n1)C(=O)Nc1ccc(S(N)(=O)=O)cc1 (centres undefined),"inconclusive: 22.4 µM [inhibitor, single point]"
5,CCOC(=O)CN(c1ccccc1)S(=O)(=O)c1ccc(F)cc1,"inconclusive: 3.16 µM [inhibitor, single point]"
6,Cc1cccnc1NC(=O)c1ccc([N+](=O)[O-])o1,"inconclusive: 35.5 µM [inhibitor, single point]"
7,Cc1ccc(NS(=O)(=O)c2cc3c4c(cccc4c2)C(=O)NC3=O)cc1C,inactive
8,Cc1ccc(-n2nc3ccc(NC(=O)/C=C/c4ccco4)cc3n2)cc1C,"inconclusive: 35.5 µM [inhibitor, single point]"
9,CCC(=O)OCc1cnc(C)c2oc(=O)c(C(=O)Nc3ccc(CC)cc3)cc12,"inconclusive: 28.2 µM [inhibitor, single point]"
10,S=C(NN=C1CCN(Cc2ccccc2)CC1)NC1CCCCC1,"inconclusive: 8.91 µM [inhibitor, partial curve, poor fit]"
11,CCOC(=O)C1CCN(C(=O)C2COc3ccccc3O2)CC1 (centres undefined),"inconclusive: 0.316 µM [inhibitor, full curve, poor fit]"
12,CCCn1nnc(NC(=S)NC(=O)c2ccccc2OC)n1,"inconclusive: 11.2 µM [inhibitor, partial curve]"
13,Cc1ccc(N2CC(C(=O)Nc3nccs3)CC2=O)cc1Cl (centres undefined),"inconclusive: 11.2 µM [inhibitor, partial curve]"
14,Cc1oc(=O)c(NC(=O)c2ccccc2)cc1C(=O)c1ccccc1,inactive
15,Cc1ccccc1-n1ncc(C(C)NC(=O)c2ccccc2)c1C (centres undefined),"inconclusive: 3.16 µM [inhibitor, single point]"
16,CCN(CC)C(=O)c1sc2nc(-c3ccccn3)[nH]c(=O)c2c1C,"inconclusive: 22.4 µM [inhibitor, partial curve, poor fit]"
17,N#C/C(C(N)=O)=C1/SC(Cc2ccc(F)cc2)C(=O)N1c1ccccc1 (centres undefined),"inconclusive: 20 µM [inhibitor, single point]"
18,COc1cc(C(=O)NC2CCN(Cc3ccccc3)CC2)cc(Cl)c1OC,inactive
19,S=C(NCc1ccco1)Nc1ccccn1,"inconclusive: 35.5 µM [inhibitor, single point]"
20,Nc1c(N(CCC2=CCCCC2)C(=O)c2ccccc2F)c(=O)[nH]c(=O)n1Cc1ccccc1,"inconclusive: 35.5 µM [inhibitor, single point]"
21,O=C1NC(c2cccs2)Nc2ccccc21 (centres undefined),inactive
22,CNC(=S)N/N=C(\C)c1ccc(N2CCOCC2)cc1,"inconclusive: 35.5 µM [inhibitor, single point]"

row,SMILES,Potency
1,COc1ccccc1/C=C/C=C1\Oc2c(ccc(O)c2CN2CCN(CCO)CC2)C1=O,"inconclusive: 17.8 µM [inhibitor, partial curve, poor fit]"
2,O=C(Nc1ccccc1-c1nc2ccccc2[nH]1)c1ccc(N2C(=O)CCC2=O)cc1,active: 11.2 µM
3,Cc1nc2scc(C)n2c(=O)c1S(=O)(=O)NCC1CCN(Cc2ccc(Cl)cc2)CC1,"inconclusive: 35.5 µM [inhibitor, single point]"
4,COCC(=O)N(Cc1nc2sc(C)c(C)c2c(=O)[nH]1)C1CCCCC1,"inconclusive: 7.94 µM [inhibitor, partial curve]"
5,O=C(COC(=O)CC(c1ccccc1)c1ccccc1)NCc1ccc(Cl)cc1,inactive
6,N#Cc1c(N)n(-c2ccccc2)c(=O)c2cc([N+](=O)[O-])ccc12,"inconclusive: 12.6 µM [inhibitor, single point]"
7,COCCCNc1ncnc2c1sc1nc(-c3ccco3)c3c(c12)CC(C)(C)OC3,"inconclusive: 35.5 µM [inhibitor, single point]"
8,O=C(c1cnccn1)N(Cc1cccs1)C1(C(=O)NC2CCCCC2)CCCCC1,"inconclusive: 6.31 µM [inhibitor, single point]"
9,Cc1nc([N+](=O)[O-])c(Br)n1CC(=O)c1cccc([N+](=O)[O-])c1,inactive
10,CSc1nsc(/C=C/Nc2ccc(C)c(C)c2)c1C#N,"inconclusive: 15.8 µM [inhibitor, partial curve, poor fit]"
11,C/C(=N\Nc1cccc2cccnc12)c1ccccn1,"inconclusive: 5.01 µM [inhibitor, full curve]"
12,CC(=O)c1c(Nc2cccc(F)c2)oc(C)cc1=O,"inconclusive: 6.31 µM [inhibitor, single point]"
13,O=C(CCNC(=O)c1ccc(Cl)cc1)NCC(c1ccco1)N1CCCC1 (centres undefined),"inconclusive: 12.6 µM [inhibitor, partial curve, poor fit]"
14,COC(=O)c1ccc(NC(=O)Nc2ccc([N+](=O)[O-])cc2)cc1,inactive
15,CCOc1ccc(S(=O)(=O)N2CCC(C(=O)Nc3cccc(NC(C)=O)c3)CC2)cc1,"inconclusive: 5.62 µM [inhibitor, single point]"
16,CC1=NN(C(=O)c2ccc(Br)cc2)C(O)(C(F)(F)OC(F)(F)F)C1 (centres undefined),"inconclusive: 35.5 µM [inhibitor, single point]"
17,COc1ccc(Cn2c(N)c(C#N)c3nc4ccccc4nc32)cc1,"inconclusive: 31.6 µM [inhibitor, single point]"
18,COC(=O)c1cc(C(=O)OC)n(Cc2ccc(F)cc2)c1C,inactive
19,CCOC(=O)c1ccc(NC(=O)C2CC(=O)N(c3ccc(C(C)C)cc3)C2)cc1 (centres undefined),"inconclusive: 35.5 µM [inhibitor, single point]"
20,COC(=O)[C@@]1(C)[C@H]2C(=O)N(Cc3ccccc3)C(=O)[C@H]2[C@H]2CN=C(SCc3ccc(C)cc3)N21,inactive
